This experiment deals with T1, AS2 fused to nYFP or cYFP (BiFC) (Arabidopsis thaliana) (UniProt O04479).
T1 sequence: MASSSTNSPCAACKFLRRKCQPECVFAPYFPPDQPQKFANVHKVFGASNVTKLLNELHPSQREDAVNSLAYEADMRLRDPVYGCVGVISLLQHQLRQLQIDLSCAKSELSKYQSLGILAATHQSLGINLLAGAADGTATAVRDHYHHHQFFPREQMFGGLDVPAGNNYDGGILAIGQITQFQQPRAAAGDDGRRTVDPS
Kind of experiment: split reporter; BiFC with nYFP and cYFP fusions co-infiltrated by Agrobacterium into N. benthamiana leaves; confocal microscopy 48 hours post-infiltration; Aux/IAA-ECFP as nuclear marker.

These are yes or no findings as the source states them, for the method shown. Binding seen in cells or lysates may run through a third protein. Some binding calls cover weakened binding; strength is not graded here. Sequences can lack the tags named with a protein.

B1: AS2 fused to nYFP or cYFP (BiFC) (protein, UniProt O04479 1-199)
chain: MASSSTNSPCAACKFLRRKCQPECVFAPYFPPDQPQKFANVHKVFGASNVTKLLNELHPSQREDAVNSLAYEADMRLRDPVYGCVGVISLLQHQLRQLQIDLSCAKSELSKYQSLGILAATHQSLGINLLAGAADGTATAVRDHYHHHQFFPREQMFGGLDVPAGNNYDGGILAIGQITQFQQPRAAAGDDGRRTVDPS
Regarding B1, the binding result is “binds”.

Values taken from publication PMC4592220, “Geminivirus Activates [sequence] LEAVES 2 to Accelerate Cytoplasmic DCP2-Mediated mRNA Turnover and Weakens RNA Silencing in Arabidopsis” (PLoS Pathogens, 2015).
